Results on two substances are retold here after paper PMC7069097.

Protein sequences, listed by entry. Tags and fused reporters are not part of them.
UniProt Q14145: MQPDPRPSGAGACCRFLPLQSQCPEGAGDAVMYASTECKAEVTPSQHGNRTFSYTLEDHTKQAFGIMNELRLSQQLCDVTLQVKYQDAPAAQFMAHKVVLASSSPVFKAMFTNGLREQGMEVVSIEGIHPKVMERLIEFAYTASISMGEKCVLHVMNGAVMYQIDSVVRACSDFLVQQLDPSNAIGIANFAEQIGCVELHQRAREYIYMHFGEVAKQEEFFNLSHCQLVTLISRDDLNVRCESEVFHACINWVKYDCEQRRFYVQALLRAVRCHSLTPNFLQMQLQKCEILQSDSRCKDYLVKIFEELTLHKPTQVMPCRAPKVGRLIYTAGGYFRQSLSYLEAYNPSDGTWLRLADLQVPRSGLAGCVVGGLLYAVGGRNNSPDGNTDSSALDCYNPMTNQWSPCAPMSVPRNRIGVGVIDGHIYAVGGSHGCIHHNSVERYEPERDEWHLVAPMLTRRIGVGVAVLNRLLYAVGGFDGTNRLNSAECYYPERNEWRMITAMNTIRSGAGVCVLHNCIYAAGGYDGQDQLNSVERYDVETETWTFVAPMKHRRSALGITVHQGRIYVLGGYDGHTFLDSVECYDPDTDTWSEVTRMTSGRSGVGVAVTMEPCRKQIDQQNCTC

Results are given in words; binding and its absence hold for the method and conditions named. Binding seen in cells or lysates may run through a third protein. Some results given as binding are weak or reduced against the parent protein; the word gives no strength. Sequences can lack the tags named with a protein.

The experiment addresses T1, PAQR4-Flag (Progestin and AdipoQ Receptor 4 with a 3×Flag at the C-terminus) (human) (UniProt Q8N4S7).
T1 sequence: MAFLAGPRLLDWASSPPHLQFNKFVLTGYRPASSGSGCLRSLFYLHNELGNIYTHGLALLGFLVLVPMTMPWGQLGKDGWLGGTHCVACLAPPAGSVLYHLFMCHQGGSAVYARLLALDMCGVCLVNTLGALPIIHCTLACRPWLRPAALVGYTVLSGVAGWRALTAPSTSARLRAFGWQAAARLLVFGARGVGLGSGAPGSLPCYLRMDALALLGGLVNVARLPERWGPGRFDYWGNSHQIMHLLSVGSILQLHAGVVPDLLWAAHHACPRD
Kind of experiment: co-IP; HEK-293T cells transiently transfected with the indicated constructs; lysates immunoprecipitated with Flag/Myc/HA antibodies, western blot.

On to “HA-Keap1 (Kelch-like ECH-associated protein 1, N-terminal 3×HA) (from UniProt Q14145 1-624)”, for which the binding result is listed as “binds”.

On to “Myc-Nrf2 (nuclear factor erythroid 2-related factor 2, N-terminal 6×Myc) (from UniProt Q16236-1 1-605)”, for which the binding result is recorded as “binds”.
